This test deals with shRNA-resistant G9a with ANK domain point mutations, unable to bind H3K9me1/me2 (shR-ANKm) (UniProt Q9Z148). In words: co-IP; immunoprecipitation with anti-G9a antibody from 400-500 ug of nuclear extract of ESC lines expressing shR forms of G9a (endogenous G9a knocked down); western blot. Background: In western blotting, separated proteins are transferred to a membrane and probed.

Chains of the proteins cited; added tags and fusions are not shown. Lines headed by an entry give the natural chain unless they say otherwise; changes in a name come on top.
UniProt Q9Z148: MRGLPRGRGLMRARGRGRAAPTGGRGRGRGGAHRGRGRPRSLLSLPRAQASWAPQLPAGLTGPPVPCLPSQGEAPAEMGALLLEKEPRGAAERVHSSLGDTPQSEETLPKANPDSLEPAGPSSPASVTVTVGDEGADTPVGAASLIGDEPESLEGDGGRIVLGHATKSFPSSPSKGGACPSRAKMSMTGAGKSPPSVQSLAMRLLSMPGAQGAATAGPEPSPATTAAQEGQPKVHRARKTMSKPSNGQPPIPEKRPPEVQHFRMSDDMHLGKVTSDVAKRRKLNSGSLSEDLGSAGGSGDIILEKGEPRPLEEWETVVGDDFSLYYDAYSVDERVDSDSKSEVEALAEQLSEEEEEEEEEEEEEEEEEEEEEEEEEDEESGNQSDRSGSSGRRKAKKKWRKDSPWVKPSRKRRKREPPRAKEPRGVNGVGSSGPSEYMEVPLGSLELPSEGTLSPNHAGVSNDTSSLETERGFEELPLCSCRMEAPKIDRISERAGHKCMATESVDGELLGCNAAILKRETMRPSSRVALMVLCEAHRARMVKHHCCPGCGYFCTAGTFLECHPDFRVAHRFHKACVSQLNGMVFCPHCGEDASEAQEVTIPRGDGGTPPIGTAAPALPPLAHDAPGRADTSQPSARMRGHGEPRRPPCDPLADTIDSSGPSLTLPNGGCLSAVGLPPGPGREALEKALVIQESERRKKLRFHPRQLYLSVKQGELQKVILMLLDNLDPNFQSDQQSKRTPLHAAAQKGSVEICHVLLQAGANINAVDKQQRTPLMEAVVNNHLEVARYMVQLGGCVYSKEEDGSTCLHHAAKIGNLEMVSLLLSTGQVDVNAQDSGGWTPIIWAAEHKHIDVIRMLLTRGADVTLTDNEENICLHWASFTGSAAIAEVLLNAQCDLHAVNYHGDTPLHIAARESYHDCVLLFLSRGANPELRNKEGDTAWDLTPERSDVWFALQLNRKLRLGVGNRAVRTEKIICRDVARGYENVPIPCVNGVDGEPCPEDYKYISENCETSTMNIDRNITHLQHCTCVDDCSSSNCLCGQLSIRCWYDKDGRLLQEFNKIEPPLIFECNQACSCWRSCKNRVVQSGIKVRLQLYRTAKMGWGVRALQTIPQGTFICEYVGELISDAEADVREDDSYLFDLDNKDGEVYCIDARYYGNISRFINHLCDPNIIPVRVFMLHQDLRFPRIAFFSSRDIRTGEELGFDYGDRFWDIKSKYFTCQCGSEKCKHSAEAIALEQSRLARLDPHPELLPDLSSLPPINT

The values below come from PMC4826439.

No constants are given. Whether binding was seen depends on the method and setting. In cells and extracts the contact can be indirect. A result given as binding can be weak or reduced; the word gives no strength.

With DNMT3B (from UniProt O88509 1-859), the binding result was “binds”.
